Holding throughout (format): physicochemical
The nature of data set [1]: HPLC stability of bendamustine (15 mg/mL, mannitol 25.5 mg/mL) in water at 5° C. The settings on record: Water Alone. How it is done:
Bendamustine degrades rapidly in water alone and forms predominantly the hydrolysis product, HP1 (monohydroxy bendamustine).
Solutions of bendamustine (15 mg/mL), and mannitol (25.5 mg/mL) were prepared in water at room temperature and immediately placed in an ice bath (to lower the temperature quickly to about 5° C.) for 10 minutes and then refrigerated at 5° C. A sample of each formulation was analyzed by HPLC using the methods described herein after 0, 3, 6 and 24 hours when stored at 5° C.

Data set [2] in a line: HPLC stability of bendamustine (15 mg/mL, mannitol 25.5 mg/mL) in alcohol/water solutions at 5° C. On the procedure:
A sample of each formulation was analyzed by HPLC after 0, 3, 6 and 24 hours when stored at 5° C.

The nature of data set [3]: HPLC stability of bendamustine in TBA 20% (v/v) with and without mannitol over 24 hours. From the text:
FIGS. 3 and 4 show the amount of degradation of bendamustine as measured by HP1 and dimer formation quantified by HPLC (as described herein). HP1 and dimer formation increased as the amount of alcohol concentration decreased regardless of the alcohol. This increase in impurities occurred with an anticipated time dependence (see Tables 3-9).

This note sets out measurements from US8895756B2, “Bendamustine pharmaceutical compositions” (priority 2005, dated 2014).

Further values from the same series stand in other lists.

As to `Cl.Cn1c(CCCC(=O)O)nc2cc(N(CCCl)CCCl)ccc21` [bendamustine, 4-{5-[Bis(2-chloroethyl)amino]-1-methyl-2-benzimidazolyl}butyric acid], the “Dimer (%)” value in data set [1] (0 hours) is listed as 0.11%; in data set [1] (3 hours) it was 0.13%; in data set [1] (6 hours), 0.17%; in data set [1] (24 hours) it was 0.29%. Moreover, the “HP1 (%)” value in data set [1] (0 hours) turned out to be 0.60%; in data set [1] (3 hours) it was 0.86%; in data set [1] (6 hours), 1.22%; in data set [1] (24 hours), 3.81%; in data set [2] (5% Butanol, 3 hours), 0.73%; in data set [3] (TBA 20% (v/v) with Mannitol, 0 hours, reverse phase HPLC) it was 0.17%. Also, the “HP1 (%)” value in data set [3] (TBA 20% (v/v) with Mannitol, 24 hours @ 5° C., reverse phase HPLC) is on record as 1.27%; in data set [3] (TBA 20% (v/v) without Mannitol, 0 hours, normal phase HPLC), 0.00%; in data set [3] (TBA 20% (v/v) without Mannitol, 24 hours @ 5° C., normal phase HPLC) it was 1.21%. The “Purity (% Area)” value was determined as 99.11 % Area in data set [1] (0 hours); 98.83 % Area in data set [1] (3 hours); 98.44 % Area in data set [1] (6 hours); 95.67 % Area in data set [1] (24 hours); 99.25 % Area in data set [2] (5% Butanol, 0 hours); 98.94 % Area in data set [2] (5% Butanol, 3 hours). The “Purity (% Area)” value in data set [2] (30% Butanol (2 layers, vortexed), 6 hours) worked out at 99.40 % Area; in data set [2] (30% Butanol (2 layers, vortexed), 24 hours) it was 99.00 % Area.
